The nature of this data set: general procedure: Fmoc solid-phase peptide synthesis; CTC resin; PyBOP/DIEA. The note with it: whole synthesis, scale 0.65 mmol.

1 substance from patent EP4692105A1 (Bivision Pharmaceuticals, Inc, priority 2023, dated 2024) can be followed below.

“Hex[Cys(3MeBn)-hhy39-Pro-Thr-Gln-Phe-Cys]-Glu-(EDA-DOTA)-OH” returned a crude mass of 550 mg.
